# Source: the supplement of paper PMC5949888
# Most values lie at the floor of the assay. Slopes are relative: functional sequences can read slightly below zero.
# Tested on: Saccharomyces cerevisiae PS128 hsf1 delta, HSF1(1-493) fusion
# Test: growth estimate (transactivation domain function in HSF1 fusion, heat-shock survival) (a.u. (slope of normalised read count over time)); higher = stronger growth at 37°C, i.e. more transactivation activity
# Details: library: random library
# Experimental: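 Random 60-nt DNA library encoding peptides of up to 20 aa, fused to the C-terminus of yeast HSF1 residues 1-493 (C-terminal TAD deleted) and expressed from the native HSF1 promoter on a CEN plasmid in hsf1-deleted S. cerevisiae PS128. Cells were selected at 37°C on -trp 5-FOA plates for 0, 2, 4, 6 and 8 days and amplicons were sequenced. Growth estimate is the slope of a robust linear fit of total-sum-normalised read counts (normalised to the first time point) over time, using at least 2 replicates. Sequences are classed functional (TAD activity) above a threshold of -0.13, set from stop-codon control sequences.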
row,Substance,growth estimate
1,CPACMTPIHRMIIWLDSRAP,< -0.25
2,CPFRMYYSLRAPRCAAELSP,< -0.25
3,CPGALSDNYKPVSWYRSTLL,< -0.25
4,CPGKLFFRTDDNTGGGCRES,< -0.25
5,CPIRGERD,< -0.25
6,CPITA,< -0.25
7,CPLHANGIRPKGDTVTNMVQ,< -0.25
8,CPLKKSPAPDR,< -0.25
9,CPLRPGSMPCDSEPIVLSFG,< -0.25
10,CPLSPGGSLGTYARRLVTVG,< -0.25
11,CPLVRPHVVGEHGLDRLVQQ,< -0.25
12,CPRGKELRGGEFATHGTRQR,< -0.25
13,CPRTPREKVYESRPEFHIAN,< -0.25
14,CPVCNPALRATRRI,< -0.25
15,CPVCSVTR,< -0.25
16,CPVDDSSPAGVLLEVAMPVQ,< -0.25
17,CPYRQRSTDLKRCAPPPMKA,< -0.25
18,CQCTAWKPKFL,< -0.25
19,CQDVERVARPGNRHYWAWLA,< -0.25
20,CQGS,< -0.25
21,CQHATCGVVTARDGLSPSAA,< -0.25
22,CQHMDRR,< -0.25
23,CQKTFCLKASELGVASAPSC,< -0.25
24,CQLFMGRRSQGLLFLCGDGP,< -0.25

row,Substance,growth estimate
1,CQLSG,< -0.25
2,CQRGLSPCFYLLDISKGQYC,< -0.25
3,CQRH,< -0.25
4,CQSSSV,< -0.25
5,CQVKNLAASRCH,< -0.25
6,CRAIWSRARVVASPGQGDRG,< -0.25
7,CRCSFGVDRGKSTV,< -0.25
8,CREGNLLTAPEVLTECGPRV,< -0.25
9,CREGRFLTSPGSGIDANQLP,< -0.25
10,CREGRL,< -0.25
11,CRFSS,< -0.25
12,CRGATPNESHRCVSFAYDTE,< -0.25
13,CRGC,< -0.25
14,CRGERRHRVVINVWIMVSPA,< -0.25
15,CRGISRIARRQSTSTAYWVR,< -0.25
16,CRGPITGWTWPTTNLGAICG,< -0.25
17,CRGVNSCETHLFRQRSKALG,< -0.25
18,CRHNSVRHSTYS,< -0.25
19,CRKANKQGLSGLQ,< -0.25
20,CRKRPIDLGNSRLG,< -0.25
21,CRKYRVWSGDHGACGPPRRT,< -0.25
22,CRLGVRWSNVWSVIAEPGNF,< -0.25
23,CRLKLVREVLGPRQFVFTLS,< -0.25
24,CRLQRLFRVGFSLVR,< -0.25

row,Substance,growth estimate
1,CRLRRTS,< -0.25
2,CRLSYWGGLPFALAKRVCFL,< -0.25
3,CRLTPGTSDHYLASCRLRDQ,< -0.25
4,CRMACCWSEQYKYG,< -0.25
5,CRNRLTRLTGVQTIGITAVG,< -0.25
6,CRNWEACPVSDHEFGTRLSG,< -0.25
7,CRPIQTHVSVNLVSVALNVR,< -0.25
8,CRRKNPSATLTF,< -0.25
9,CRRMYTDRRARTGPGTRSRL,< -0.25
10,CRRVFLYSGPGRKI,< -0.25
11,CRSGSVSQRQ,< -0.25
12,CRSLHPAKMCSCIWFLARVE,< -0.25
13,CRSQDSRGTCVSESVLRSRR,< -0.25
14,CRTCGLTMRIRSDAGTVRNH,< -0.25
15,CRTGPCHVYSSSSVSFCHAH,< -0.25
16,CRTSVDRQALQHIGHSKIFT,< -0.25
17,CRVAKLGFSPQTLRCSHATF,< -0.25
18,CRVKGIIAARKESLSRLTMT,< -0.25
19,CRVPADVFTLGVRS,< -0.25
20,CSAS,< -0.25
21,CSDRLGNVIPTGVLLEISDR,-0.231
22,CSEPLSAWRLNFVSTGCLGV,< -0.25
23,CSERTCHITLCRRQHPRNAR,< -0.25
24,CSGHT,< -0.25

row,Substance,growth estimate
1,CSGLSKSHSTEEGFHSQAPP,< -0.25
2,CSHTFRVGPPYRGRGIDKCL,< -0.25
3,CSHV,< -0.25
4,CSLFRSPIRTPPIFLQRAHI,-0.113
5,CSLGTEFRGIIICRTWHREP,< -0.25
6,CSLRCPISHNVNQHREVSIK,< -0.25
7,CSLVKACDELVGHA,< -0.25
8,CSPACLPGVVSSFSRDEPSA,< -0.25
9,CSPG,< -0.25
10,CSPRPCSMCPSQRLITI,< -0.25
11,CSQV,< -0.25
12,CSRELNRERVGGKSRVVICG,< -0.25
13,CSRREY,< -0.25
14,CSRSDIFVDLLAEEQMISLV,< -0.25
15,CSRSGDDCCRRCVSVYEGMG,< -0.25
16,CSRVS,< -0.25
17,CSSIIHAMPAVS,< -0.25
18,CST,< -0.25
19,CSTETRVRKTRYDVYMT,< -0.25
20,CSTIPVYFESACLFTGCRKS,< -0.25
21,CSVGWWTVSLGIVNLRTEQS,< -0.25
22,CSVLAQGFMNPETGWLAVIT,< -0.25
23,CSVYMTGLSVPGCNSPPLGP,< -0.25
24,CSWCVSFDPECG,-0.233

# As entered above:
# CRGATPNESHRCVSFAYDTE | growth estimate: < -0.25
# CRGVNSCETHLFRQRSKALG | growth estimate: < -0.25
# CPRTPREKVYESRPEFHIAN | growth estimate: < -0.25
# CQSSSV | growth estimate: < -0.25
# CSRELNRERVGGKSRVVICG | growth estimate: < -0.25
# CSLFRSPIRTPPIFLQRAHI | growth estimate: -0.113
# CSRREY | growth estimate: < -0.25

# Carrying on.

row,Substance,growth estimate
1,CSYRGRSSRGVGVAAFDDIV,< -0.25
2,CTAVRLSTYVVR,< -0.25
3,CTDFGGQCPKLSRCSEGAPV,< -0.25
4,CTER,< -0.25
5,CTFDITMK,< -0.25
6,CTGELSMVHCGVIFHRPVRQ,< -0.25
7,CTHSKLNMVYGGWAPALGSS,< -0.25
8,CTISERYGWRSDVIRELHPC,< -0.25
9,CTISR,< -0.25
10,CTLALRKRVRQRWCISDFGP,< -0.25
11,CTLDETIEDSRWESPRHDSN,< -0.25
12,CTLIIGVPWYGFMRGWAELW,< -0.25
13,CTLMPK,< -0.25
14,CTLSYCQLVS,< -0.25
15,CTLTLATRCVLKDTQVPPVW,< -0.25
16,CTLVAMVIRRVKQHIDRGVS,< -0.25
17,CTMSGADTPLL,< -0.25
18,CTPGVVVRERISAAS,< -0.25
19,CTPIY,< -0.25
20,CTRTFGPVQPGTLVNRGVLE,< -0.25
21,CTSIIAWSNLGTR,< -0.25
22,CTTGWKPKKEVRSHGQTTAL,< -0.25
23,CTVRLTRFPVQPSRRFSGFP,< -0.25
24,CTWHNVCDALYIGMVPLRNK,-0.243

row,Substance,growth estimate
1,CTYGTDRTWIGSSGTGITVS,< -0.25
2,CVARGYIFQERSN,< -0.25
3,CVAWRPRKIRGGLVSWD,< -0.25
4,CVCHCHEVYRE,< -0.25
5,CVDPFIADDGSIPCHIRSVQ,-0.25
6,CVDPGGRV,< -0.25
7,CVGERFAYGPYQQDNAWPDE,< -0.25
8,CVGWIT,< -0.25
9,CVHSGRSL,< -0.25
10,CVKQGS,< -0.25
11,CVKSTCLQVTPALVLRCLSR,< -0.25
12,CVLRCTLFMRLCSGHVHL,< -0.25
13,CVN,< -0.25
14,CVPSIFIGGTDLGVWHRVTK,< -0.25
15,CVRGGGTLSFCAPHETGLSP,< -0.25
16,CVRSSMDLLVTLI,< -0.25
17,CVSLNDNASISHHNVYHCVE,< -0.25
18,CVTKIY,< -0.25
19,CVTN,< -0.25
20,CVVGTPFALSTIDCRTKHVE,< -0.25
21,CVVLMLGLCRIYPGIRWCVR,< -0.25
22,CVVMGSI,< -0.25
23,CVVYPVCSGSRHRVKLVCRP,< -0.25
24,CVWIKF,< -0.25

row,Substance,growth estimate
1,CWCQPTFPYKDWEQIVPVST,< -0.25
2,CWGTGRRDLRI,< -0.25
3,CWKAACEKVRVSI,< -0.25
4,CWY,< -0.25
5,CYARRNADIPKYFPSLAQRF,< -0.25
6,CYIIS,< -0.25
7,CYIKRLHSLIGKYYLRAFSF,< -0.25
8,CYSKLASWFCPGMHLFHNPW,< -0.25
9,CYTRPSRCHVCSSAWANSIG,< -0.25
10,CYVGRITHAFSLRWVARGAG,< -0.25
11,CYYAWPGARSVGTRVSCVIA,< -0.25
12,DAAHDPRPGASGVNVRGLHS,< -0.25
13,DACPNACFS,< -0.25
14,DAEMGRLSAGVCWFCRLRWV,< -0.25
15,DAFVREPSVAQ,< -0.25
16,DAGYQFDRSVVPCMGKSRRL,< -0.25
17,DALLQSDAPQFSQR,< -0.25
18,DAMEGQIGFRG,< -0.25
19,DAPEQSMNLSVSRQPVIDCA,< -0.25
20,DAREIDL,< -0.25
21,DASGAQPLNGPLGWACRLWF,< -0.25
22,DASRSEEG,-0.0747
23,DASVQRKEPRVAIKSSAQIL,< -0.25
24,DASVT,< -0.25

row,Substance,growth estimate
1,DASWTRASRLVAMCRIPSS,< -0.25
2,DATDYKISNVGLV,< -0.25
3,DATGGMRSGWYQER,< -0.25
4,DAVAYSKTRVQFNSSRVPEL,< -0.25
5,DCASPLRY,< -0.25
6,DCCTARVAVGYLANSETAL,< -0.25
7,DCERVSMGTCPGECAHAGSS,< -0.25
8,DCESCSSDKEGW,< -0.25
9,DCFVGFFYCGCQDRGEKWLA,< -0.25
10,DCGFVNYMIGLVYTKFRRLL,-0.229
11,DCI,< -0.25
12,DCIESVNVPHLLR,< -0.25
13,DCIHRKVIRLEQL,< -0.25
14,DCLAYLCSRFYRVACVRLKR,< -0.25
15,DCRILWCFNAARLVVIPQDC,< -0.25
16,DCRRAALLLGNLRARTRVRR,< -0.25
17,DCSAGLGEIAGVSSNEPARR,-0.243
18,DCSGGRYFATANLFRNGPGL,< -0.25
19,DCWVEGAFVAGMSHN,< -0.25
